Measured values: PMC10579798
No constants are given. Whether binding was seen depends on the method and setting. Binding seen in cells or lysates may run through a third protein. Binding calls can cover weak binding; strength is not graded here. Sequences can lack the tags named with a protein.

Experiments:
[1] = molecular target: myc-tagged wild-type Sik3-PA (Drosophila salt-inducible kinase 3) (Drosophila); experiment: co-IP; reciprocal: protein extracts of dpp-Gal4 larvae co-expressing HA-Hipk and a myc-tagged Sik; precipitated with anti-myc antibody (Sik2) or myc agarose beads (Sik3), control IgG or control agarose, Western blot
[2] = molecular target: myc-tagged wild-type Sik2 (Drosophila salt-inducible kinase 2) (Drosophila) (UniProt Q9W532); experiment: as above

binding [1]: binds
binding [2]: binds
B1: HA-tagged Hipk (Drosophila homeodomain-interacting protein kinase) (enzyme, UniProt Q9W0Q1 1-1340)
chain: MKTSYPPKASDFVDYAVAGGGGSGFCSGLGAGLSVRATSFYGDQTVTATTDGTRHQEQQQQQLQQQQQQHILRQPATSASTSSVAAAATSKRKRQTDCDCGCVDSYNSSHGPPVQQDSSAAAGAGSVGSKAGSGPGPDGIGPISSLKTAHTKVATSGGHANTQPPSKRSSSGADGDYQLVQHEVLYSLSAEYEVLEFLGRGTFGQVVKCWKRGTSEIVAIKILKNHPSYARQGQIEVSILSRLSQENADEFNFVRAFECFQHKNHTCLVFEMLEQNLYDFLKQNKFSPLPLKYIRPILEQVLTALLKLKQLGLIHADLKPENIMLVDPVRQPYRVKVIDFGSASHVSKTVCNTYLQSRYYRAPEIILGLPFCEAIDMWSLGCVVAELFLGWPLYPGSSEFDQIRYISQTQGLPTEHMLNSASKTSKFFYRDVDSTYPFWRLKTTEEHEAETNTKSKEARKYIFNCLDDIGQVNVPTDLEGGQLLAEKTDRREFIDLLKRMLTIDQERRLTPAEALNHSFTRLTHLVDYVYCNNVKASVQMMEVCRRGDFHTVQPASTLVTNFVPSSTENMTFTINNQLTSQVQRLVRDGRPLAYEGLYQIYNGRSVARQYPQTRTDSFQHQLVSNILCPPSYQTMPSPTKHVVVGSATMQPPLQVPPQQYVNVPVPVSMVEPTSGQRMLLTNRVQASGVAWPQTGRQMALVPSWPQQAPAHSLIVDSTPLFNVEEIYPKHHLNLPRNDLKKESPAHHIAKGNSYRVPRHEKKEHQQLSPVKKRVKESSPPHQQRYQRAAHVSPQYHAHHNCNYGNGSGYSASAGSVVASSAASSSNIVNGSSSSSHHHHVPVAHAQPYSSSSGHHIVSNCNANGGAGGAVVYQQPPAHAHQQHGQQPHPQSSQHPQHVKQPTITIHDTPSPTAVITISDSEDEGGEAGGAQVPVLKQRAHAQSQTSGSLLQHAPSSSCSRSSAHQQPHPHPQQQQQQQINYGDHDPEDARRRHHAAAAAAVGSPKHHHHQQQQQPAPPPQQQQQQYQPQPPPQQVLPQPQPSIKYEPGQSQKKRILAMAQSECGYQPQVPSQPSSSASLPHIPTKQEPAEFYPEYAAAPPQQLDTKRSSWAPTSSGSGVSALPLAHPKREAPSVAPISYVAPSVAPPLAHSKSSSASSSSSISAATAAAAAAAAAAAASVGPPSWGPPQVYRQPSQPPPGSVGLPGSTQPPPSSVAPHPHHHSHGHHHHQAGTPLGGSPSSTAAAALLQPDIYAQGDIYRRPTVFVSQAAPSYAYANRAVVAPPPAHNSSSRQVIPSHPLPAHIQIPTQYSQFGPLSPAQVAASKHAAHFAPTNIWYGAE
